Record: PubChem BioAssay AID1259425 (University of Nebraska Medical Center, 2018)

Assay: 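Seek colon cancer weak points whose silencing resembles KSR1 loss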 (primary screen)
Cells: HCT116 human colon cancer cells
Reagent: siRNA pool against human genes, 50 nM siRNA
Measured: 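mRNA of six signature genes measured together by branched-DNA assay after 50 nM siRNA pool, blank removed, divided by geometric mean of two housekeeping genes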
Scale: BNIP3L mRNA: higher = more BNIP3L transcript after knockdown
In all, the deposit lists about 14,000 reagents; shown is an unselected part. Reagents against one gene are numbered here. Not all columns of the deposit are shown. Not given: the time to read-out.

BNIP3L mRNA, set 1, by target and reagent
N4BP2L2 (NEDD4 binding protein 2 like 2): #1 0.857
CTAG2 (cancer/testis antigen 2): #1 0.095
BNIP3L (BCL2 interacting protein 3 like): #1 0.0066
AFF1 (ALF transcription elongation factor 1): #1 0.139
VSIG10 (V-set and immunoglobulin domain containing 10): #1 0.093
APOBEC1 (apolipoprotein B mRNA editing enzyme catalytic subunit 1): #1 0.141
SFXN3 (sideroflexin 3): #1 0.129
SLC2A6: #1 0.15
CLMN (calmin): #1 0.173
IER3IP1 (immediate early response 3 interacting protein 1): #1 0.173
ECD (ecdysoneless cell cycle regulator): #1 0.175
CHMP6 (charged multivesicular body protein 6): #1 0.165
SLC30A4: #1 0.0692
MKI67 (marker of proliferation Ki-67): #1 0.111
RNF34 (ring finger protein 34): #1 0.103
BFAR (bifunctional apoptosis regulator): #1 0.0648
RPL35 (ribosomal protein L35): #1 0.477
TACSTD2 (tumor associated calcium signal transducer 2): #1 0.0698
RHOBTB1 (Rho related BTB domain containing 1): #1 0.168
HDGFL3 (HDGF like 3): #1 0.159
BACE2 (beta-secretase 2): #1 0.181
RMND5B (required for meiotic nuclear division 5 homolog B): #1 0.131
INS (insulin): #1 0.0672
NPBWR2 (neuropeptides B and W receptor 2): #1 0.178
KCNQ1DN (KCNQ1 downstream neighbor): #1 0.115
WIF1 (Wnt inhibitory factor 1): #1 0.116
ERN2 (endoplasmic reticulum to nucleus signaling 2): #1 0.112
PDGFA (platelet derived growth factor subunit A): #1 0.181
MRPL9 (mitochondrial ribosomal protein L9): #1 0.0932
ATP6V0A4 (ATPase H+ transporting V0 subunit a4): #1 0.0564
XPO5 (exportin 5): #1 0.152
DIDO1 (death inducer-obliterator 1): #1 0.136; #2 0.218
RNPEPL1 (arginyl aminopeptidase like 1): #1 0.0997

6 entries already listed, sorted by “BNIP3L mRNA, set 1”, high to low:
target	pool no.	BNIP3L mRNA, set 1
RPL35 (ribosomal protein L35)	1	0.477
CHMP6 (charged multivesicular body protein 6)	1	0.165
MKI67 (marker of proliferation Ki-67)	1	0.111
RNF34 (ring finger protein 34)	1	0.103
SLC30A4	1	0.0692
BFAR (bifunctional apoptosis regulator)	1	0.0648
